Drawing on publication PMC5522267, “Targeting PEPT1: a novel strategy to improve the antitumor efficacy of doxorubicin in human hepatocellular carcinoma therapy” (Oncotarget, 2017), this text covers IC50 for 1 compound.

Structures are written as SMILES. Structures can show the parent of a compound that is named as a salt.

In this test the test system is HepG2. In words: cells. Format: cell-based. To be noted: Homo sapiens; HepG2, MTT. The protocol: Cells in the growth log phase were seeded in 96-well plate (200 ul/well) with density 8×10^3/well for 24 hours, then the drugs were added. The concentration of Doxorubicin-tripeptide conjugate was 0.005 mg/ml, 0.01 mg/ml, 0.02 mg/ml, 0.04 mg/ml, 0.06 mg/ml in turn, while Doxorubicin followed by 0.005 mg/ml, 0.01 mg/ml, 0.02 mg/ml, 0.04 mg/ml, 0.06 mg/ml with a same dosing volume 100 μl. Each concentration group included five equal wells and was provided with a control well of medium alone as a negative control. Add 20 μl of MTT Reagent ( 5 mg/ml, Sigma) to each well, including controls and continue to be incubated at 37°C for 4 hours. Remove the supernatant, drop plus DMSO (200 μl/well) and measure the OD value in each well, including the blanks, at 490 nm by a Multi-Mode Reader (BioTek, Synergy 2, USA). To calculate the inhibitory rate and the half maximal inhibitory concentration (IC50) according to the formula: Inhibitory rate =(1-( the dosing group OD/the control group OD )) × 100%, IC50 = lg^-1 (Xm-i (ΣP-0.5)) (Xm: the logarithm of maximum concentration, I: the logarithm of maximum dose/ adjacent dose, P: the sum of each group inhibitory rate, Pm: the maximum inhibitory rate, Pn: the minimum inhibitory rate ).

What is called IC50 is the concentration that inhibits the measured activity by half.

As to `COc1cccc2c1C(=O)c1c(O)c3c(c(O)c1C2=O)C[C@@](O)(C(=O)CO)C[C@@H]3O[C@H]1C[C@H](N)[C@H](O)[C@H](C)O1` [Doxorubicin, Doxorubicin hydrochloride], the IC50 was 14.7 µg/mL.
